Source: publication PMC4587749
These are yes or no findings as the source states them, for the method shown. Binding seen in cells or lysates may run through a third protein. Some entries that bind do so weakly or less than the wild type.

Experiments:
[1] = molecular target: T1, PfAlba1-Ty1 (Plasmodium falciparum) (UniProt Q8IAX8); test: co-IP; PfAlba1-Ty1 immunoprecipitated with rabbit anti-Ty1 antibodies from non-denaturing lysates of 3D7+PfAlba1-Ty1 trophozoites (28-30 h; also schizonts, 42-45 h) grown at 5 ug/ml blasticidin-S, with RNAsin; western blot with anti-PfAlba1 antibodies
T1 sequence: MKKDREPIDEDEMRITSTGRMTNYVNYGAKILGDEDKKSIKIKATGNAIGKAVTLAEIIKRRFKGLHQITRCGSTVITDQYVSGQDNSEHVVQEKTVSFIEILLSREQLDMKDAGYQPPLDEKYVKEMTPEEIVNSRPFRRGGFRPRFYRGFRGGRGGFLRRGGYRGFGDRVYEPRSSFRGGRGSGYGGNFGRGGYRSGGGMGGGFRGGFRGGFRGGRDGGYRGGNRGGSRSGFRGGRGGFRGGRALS

[2] = molecular target: T2, PfAlba2 (Plasmodium falciparum) (UniProt Q8IDN4); test: co-IP; data not shown; during the IDC; bait and antibodies not stated
T2 sequence: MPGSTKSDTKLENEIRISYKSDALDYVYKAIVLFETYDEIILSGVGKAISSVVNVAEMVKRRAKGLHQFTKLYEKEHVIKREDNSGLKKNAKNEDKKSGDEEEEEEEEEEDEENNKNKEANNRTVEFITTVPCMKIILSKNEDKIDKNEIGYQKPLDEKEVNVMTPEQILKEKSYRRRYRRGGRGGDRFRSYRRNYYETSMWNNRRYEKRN

[3] = molecular target: T3, endogenous PfAlba1 (Plasmodium falciparum (endogenous in 3D7 parasites)) (UniProt Q8IAX8); test: as above
T3 sequence: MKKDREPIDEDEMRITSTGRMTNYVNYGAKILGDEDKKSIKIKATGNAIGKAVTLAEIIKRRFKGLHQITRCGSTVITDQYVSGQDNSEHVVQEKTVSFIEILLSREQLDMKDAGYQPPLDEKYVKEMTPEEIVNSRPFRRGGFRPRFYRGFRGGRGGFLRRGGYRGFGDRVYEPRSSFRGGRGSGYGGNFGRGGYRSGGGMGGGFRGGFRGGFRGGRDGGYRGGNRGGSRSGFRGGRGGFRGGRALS

Binder	binding [1]	binding [2]	binding [3]
endogenous PfAlba1 (protein, UniProt Q8IAX8 1-248) MKKDREPIDEDEMRITSTGRMTNYVNYGAKILGDEDKKSIKIKATGNAIGKAVTLAEIIKRRFKGLHQITRCGSTVITDQYVSGQDNSEHVVQEKTVSFIEILLSREQLDMKDAGYQPPLDEKYVKEMTPEEIVNSRPFRRGGFRPRFYRGFRGGRGGFLRRGGYRGFGDRVYEPRSSFRGGRGSGYGGNFGRGGYRSGGGMGGGFRGGFRGGFRGGRDGGYRGGNRGGSRSGFRGGRGGFRGGRALS	binds		
PfAlba4 (protein, UniProt A0A5K1K8Y8 1-372) MENDKKHNQKQNNVDENEFPNSKVLLVSVKRTRRFLERTARELLAGGTRYIILSGLGDALPLCVQLQSSLQSKNAANVVKIETSYSYFNSNYSYTPGLKIYMEKHPEFKGSRISPGYVSFHEKTDSFTPIYDENPNEYICSLNAGDNNLYVGGEGINGAFSELLSSHNQEVDKYESLFKELLTKAVNENGEKPDEEVKSVLYDNVDKKYPDVKLALCRIRNSLKKGSDHSTGSVFIVTFKKNFPHKKEKNMGMVYVVGPKGKNYNSVEEFLDEVQETAENLMTTLCDYNGLVKREEIKHVRMNTCRICLFSGSIFKHPNASKLDVAKAILNGLAVGYRHGPSPRLNFAYDENVFKDAWVETTGLQVFNHNEQ		binds	binds
